Test results published in patent US8198099B2, “Mechanism to signal receptor-ligand interactions with luminescent quantum dots” (The University of Miami, priority 2006, dated 2012).

Assay: Stern-Volmer quenching of quantum dot luminescence by bipyridinium quenchers
Format: binding
Conditions: quantum dots 1.5 μM, sodium phosphate buffer, pH=7.8, 20° C., λEx=350 nm
Method: The emission spectra (λEx=350 nm) of the same solution were recorded before (b) and after the consecutive addition of 1 (c, 4.1 μM) and 3 (d, 21 μM). Also shown is a Stern-Volmer plot (e) of hydrophilic CdSe—ZnS core-shell quantum dots (1.5 μM, sodium phosphate buffer, pH=7.8, 20° C., λEx=350 nm) upon addition of increasing amounts of 1.
Also shown is a Stern-Volmer plot (d) of hydrophilic CdSe—ZnS core-shell quantum dots (1.5 μM, sodium phosphate buffer, pH=7.8, 20° C., λEx=350 nm) after addition of increasing amounts of 2.
Indeed, bipyridinium dications are known to accept electrons from excited CdSe and CdSe—ZnS core-shell quantum dots, quenching their luminescence.36-37 The corresponding Stern-Volmer plot (e in FIG. 2) deviated from linearity at quencher concentrations greater than about 2.5 μM. […]
In order to test the potential of our operating principles to signal receptor-ligand interactions, we designed a compound (2 in FIG. 3) integrating a bipyridinium quencher and a biotin ligand within the same molecular skeleton and prepared this molecule in two synthetic steps (see FIG. 6). Once again, the luminescence of the hydrophilic quantum dots decreases upon exposure to 2 (a and b in FIG. 7) (the addition of either 1 or 2 to a solution of the quantum dots has no influence on the visible region of the absorption spectrum). […]

| Structure (SMILES) | quencher concentration above which the Stern-Volmer plot deviates from linearity |
| --- | --- |
| C[n+]1ccc(-c2cc[n+](CCCOCCCCCC3SCC4NC(=O)NC43)cc2)cc1.[I-].[I-] (centres unmarked) [compound 2, 1-Methyl-1′-(3-(5-(2-Oxohexahydrothieno[3,4-d]imidazol-6-yl)-pentanoxy)-propyl)-4,4′-Bipyridinium Bisiodide] | about 2.5 μM |
| C[n+]1ccc(-c2cc[n+](C)cc2)cc1 [compound 1, methyl viologen, reference compound] | about 2.5 μM |
